{
  "source": "patent US11013782B2",
  "about": "“Methods of treating chronic disorders with complement inhibitors” (Apellis Pharmaceuticals, Inc., priority 2011, dated 2021)",
  "tested_on": "A. suum antigen-challenged cynomolgus monkeys",
  "assay": "Ascaris suum model of asthma: BAL cytokine levels",
  "details": "24 hours following Challenge 2, 10 mg/kg once daily for 9 days as powder",
  "note": "For at least one compound, name, drawing or mass did not settle the structure.",
  "data": [
    {"compound": "CCCC1O[C@@H]2C[C@H]3[C@@H]4CCC5=CC(=O)C=C[C@]5(C)[C@H]4[C@@H](O)C[C@]3(C)[C@]2(C(=O)CO)O1", "note": "(stereo partly shown) [Budesonide]", "values": [
      {"measurement": "IL-17/IL-23 axis", "value": "appears to be upregulated"}
    ]}
  ]
}
